Test results: patent US5492802A, “Dye compounds and photographic elements containing such dyes” (Eastman Kodak Company, priority 1994, dated 1996)
Several values for one entry are separate records, joined by “and”; a condition that tells them apart may be missing. Equal entries are not always repeated. Structures can show the parent of a compound that is named as a salt.

Experiments:
[1] = Dye speed in the B&W format (spectral sensitization); settings: Table VI, 0.8 mmole/mole Ag, various coating sets; for SR (sensitizing ratio): speed at λ-max minus intrinsic speed at 400 nm plus 200 (log E × 100)
[2] = Dye stain in the color format; settings: Table VIII; for Stain (maximum absorbance): at the stain λmax on the same line, 0.4 mmole/mole Ag; for Stain λmax: wavelength of the stain on the same line
[3] = Dye stain in the B&W format; settings: Table VII, various coating sets; for Stain (maximum absorbance): at the λmax on the same line, RP X-OMAT processing, 0.8 mmole/mole Ag; for Stain λmax: wavelength of the stain absorbance on the same line

Row | Structure (SMILES) | λmax (sensitization) (nm) [1] | SR (sensitizing ratio) [1] | Stain (maximum absorbance) [3] | Stain λmax [3] | other results
1 | CCC(=Cc1oc2ccc(NC(=O)c3cccc(O)c3)cc2[n+]1CCCS(=O)(=O)O)C=C1Oc2ccc(Cl)cc2N1CCCS(=O)(=O)[O-] [Dye I-38] | 544 | 254 | – | – | –
2 | CCC(=Cc1oc2ccc(-c3cccs3)cc2[n+]1CCCS(=O)(=O)O)C=C1Oc2ccc(Cl)cc2N1CCCS(=O)(=O)[O-] [Dye C-8, reference compound] | – | – | – | – | Stain (maximum absorbance) ([2]; coating set marked #): 38 OD × 10^3; Stain λmax ([2]; coating set marked #): 512
3 | CCC(=Cc1oc2ccc(NC(=O)c3ccco3)cc2[n+]1CCCCS(=O)(=O)O)C=C1Oc2ccc(Cl)cc2N1CCCS(=O)(=O)[O-] [Dye I-23, Anhydro-5-chloro-9-ethyl-5'-(2-furancarboxamido)-3'-(4-sulfobutyl)-3-(3-sulfopropyl)oxacarbocyanine triethylammonium salt] | – | – | 41 OD × 10^3 | 510 | –
4 | CCC(=Cc1oc2ccc(-c3cccc(NC(C)=O)c3)cc2[n+]1CCC(C)S(=O)(=O)[O-])C=C1Oc2ccc(Cl)cc2N1CCCS(=O)(=O)O (centres unmarked) [Dye I-13] | 541 | 238 | 47 OD × 10^3 | 508 | –
5 | CCC(=Cc1oc2ccc(NC(=O)c3cccs3)cc2[n+]1CCC(C)S(=O)(=O)O)C=C1Oc2ccc(Cl)cc2N1CCCS(=O)(=O)[O-] (centres unmarked) [Dye I-21] | 546 | 249 | 64 OD × 10^3 and 88 OD × 10^3 | 510 and 543 | –
6 | CCC(=Cc1oc2ccc(-c3ccc[nH]3)cc2[n+]1CCCS(=O)(=O)O)C=C1Oc2ccc(F)cc2N1CCCS(=O)(=O)[O-] [Dye I-46] | – | – | 38 OD × 10^3 | 518 | –
7 | CCC(=Cc1oc2ccc(-c3ccc(NC(C)=O)cc3)cc2[n+]1CCCS(=O)(=O)[O-])C=C1Oc2ccc(F)cc2N1CCCS(=O)(=O)O [Dye I-10] | 530 | 231 | 50 OD × 10^3 | 508 | –
8 | CCC(=Cc1oc2ccc(NC(=O)c3ccccc3O)cc2[n+]1CCS(=O)(=O)[O-])C=C1Oc2ccc(NC(=O)c3ccccc3O)cc2N1CCS(=O)(=O)O [Dye I-19] | – | – | > 100 OD × 10^3 | 540 | –
9 | CCC(=Cc1oc2ccc(NC(=O)c3ccc[nH]3)cc2[n+]1CCCS(=O)(=O)O)C=C1Oc2ccc(I)cc2N1CCCS(=O)(=O)[O-] [Dye I-36] | 546 | 249 | – | – | –
10 | CCC(=Cc1oc2ccc(-c3ccc(NC(C)=O)cc3)cc2[n+]1CCS(=O)(=O)[O-])C=C1Oc2ccc(Cl)cc2N1CCCS(=O)(=O)O [Dye I-8] | – | – | 50 OD × 10^3 | 508 | Stain (maximum absorbance) ([2]; set not marked #): 13 OD × 10^3; Stain λmax ([2]; set not marked #): 510
11 | CCC(=Cc1oc2ccc(NC(=O)c3ccco3)cc2[n+]1CCCS(=O)(=O)O)C=C1Oc2ccc(F)cc2N1CCCS(=O)(=O)[O-] [Dye I-27] | 535 | 231 | 40 OD × 10^3 | 508 | –
12 | CCC(=Cc1oc2ccc(NC(=O)c3ccccc3)cc2[n+]1CCS(=O)(=O)[O-])C=C1Oc2ccc(NC(=O)c3ccccc3)cc2N1CCS(=O)(=O)O [Dye I-5] | 539 | 236 | 91 OD × 10^3 and 71 OD × 10^3 | 540 and 510 | –
13 | CCC(=Cc1oc2ccc(-c3ccccc3)cc2[n+]1CCCS(=O)(=O)O)C=C1Oc2ccc(NC(C)=O)cc2N1CCCS(=O)(=O)[O-] [Dye C-5, reference compound] | – | – | – | – | Stain (maximum absorbance) ([2]; set not marked #): 24 OD × 10^3; Stain λmax ([2]; set not marked #): 512
14 | CCC(=Cc1oc2ccc(C(=O)Nc3ccccc3)cc2[n+]1CCCS(=O)(=O)O)C=C1Oc2ccc(Cl)cc2N1CCCS(=O)(=O)[O-] [Dye I-37] | – | – | – | – | Stain (maximum absorbance) ([2]; set not marked #): 12 OD × 10^3; Stain λmax ([2]; set not marked #): 505
15 | O=C(Nc1ccc2sc(C=C3Sc4ccc(Cl)cc4N3CCCS(=O)(=O)[O-])[n+](CCCS(=O)(=O)O)c2c1)c1ccccc1O [Dye I-35] | – | – | – | – | Stain (maximum absorbance) ([2]; set not marked #): 34 OD × 10^3; Stain λmax ([2]; set not marked #): 465
16 | CCC(=Cc1oc2ccc(NC(=O)c3ccc[nH]3)cc2[n+]1CCC(C)S(=O)(=O)O)C=C1Oc2ccc(F)cc2N1CCCS(=O)(=O)[O-] (centres unmarked) [Dye I-33] | – | – | 30 OD × 10^3 | 508 | –
17 | CCC(=Cc1oc2ccc(-c3ccc(NC(C)=O)cc3)cc2[n+]1CCS(=O)(=O)[O-])C=C1Oc2ccc(-c3ccc(NC(C)=O)cc3)cc2N1CCS(=O)(=O)O [Dye I-11] | – | – | 84 OD × 10^3 and 78 OD × 10^3 | 500 and 525 | –
18 | CCC(=Cc1oc2ccc(-c3ccc(NC(C)=O)cc3)cc2[n+]1CCS(=O)(=O)[O-])C=C1Oc2ccc(F)cc2N1CCCS(=O)(=O)O [Dye I-9] | – | – | 46 OD × 10^3 | 508 | –
19 | CCC(=Cc1oc2ccc(NC(=O)c3ccccc3O)cc2[n+]1CCC(C)S(=O)(=O)[O-])C=C1Oc2ccc(F)cc2N1CCCS(=O)(=O)O (centres unmarked) [Dye I-18] | – | – | 39 OD × 10^3 | 508 | –
20 | CCC(=Cc1oc2ccc(-c3ccc(NC(C)=O)cc3)cc2[n+]1CCCS(=O)(=O)[O-])C=C1Oc2ccc(Cl)cc2N1CCCS(=O)(=O)O [Dye I-6] | – | – | 47 OD × 10^3 | 510 | –
21 | CCC(=Cc1oc2ccc(NC(=O)c3ccc[nH]3)cc2[n+]1CCCS(=O)(=O)O)C=C1Oc2ccc(Br)cc2N1CCCS(=O)(=O)[O-] [Dye I-34] | 546 | 254 | – | – | –
22 | CCC(=Cc1oc2ccc(-c3ccco3)cc2[n+]1CCCS(=O)(=O)O)C=C1Oc2ccc(Cl)cc2N1CCS(=O)(=O)[O-] [Dye I-48] | – | – | 36 OD × 10^3 | 510 | –
23 | CCC(=Cc1oc2ccc(-c3ccc(NC(C)=O)cc3)cc2[n+]1CCS(=O)(=O)[O-])C=C1Oc2ccc(Br)cc2N1CCCS(=O)(=O)O [Dye I-12] | 547 | 249 | – | – | –
24 | CCC(=Cc1oc2ccc(-c3ccco3)cc2[n+]1CCCS(=O)(=O)O)C=C1Oc2ccc(F)cc2N1CCCS(=O)(=O)[O-] [Dye I-49] | – | – | 36 OD × 10^3 | 510 | Stain (maximum absorbance) ([2]; coating set marked #): 15 OD × 10^3; Stain λmax ([2]; coating set marked #): 510
25 | CCC(=Cc1oc2ccc(-n3cccc3)cc2[n+]1CCCS(=O)(=O)O)C=C1Oc2ccc(Cl)cc2N1CCCS(=O)(=O)[O-] [Dye I-43, Anhydro-5-chloro-9-ethyl-5'-(pyrrol-1-yl)-3,3'-di(3-sulfopropyl)oxacarbocyanine hydroxide potassium salt] | – | – | 36 OD × 10^3 | 510 | Stain (maximum absorbance) ([2]; coating set marked #): 22 OD × 10^3; Stain λmax ([2]; coating set marked #): 510
26 | CCC(=Cc1oc2ccc(-c3ccccc3)cc2[n+]1CCC(C)S(=O)(=O)O)C=C1Oc2ccc(-c3ccccc3)cc2N1CCC(C)S(=O)(=O)[O-] (centres unmarked) [Dye C-3, reference compound] | – | – | – | – | Stain λmax ([2]; set not marked #): 512 and 550
27 | CCC(=Cc1oc2ccc(NC(=O)c3ccccc3)cc2[n+]1CCCS(=O)(=O)[O-])C=C1Oc2ccc(Cl)cc2N1CCCS(=O)(=O)O [Dye I-2] | – | – | 41 OD × 10^3 and 61 OD × 10^3 | 510 and 550 | Stain (maximum absorbance) ([2]; set not marked #): 12 OD × 10^3; Stain λmax ([2]; set not marked #): 510
